Measurements reported in PubChem BioAssay AID652243 (Drosophila RNAi Screening Center, 2013).
The screen tested about 24,000 reagents; below is an unselected part of those that have a named target and a result. Over the whole deposit, 246 (1%) got an active call. 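Plates not normalised; calls are printed but the firefly/Renilla ratio behind them is not deposited; fold cut for lowering reported inconsistently.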 Raw values vary from plate to plate and are shown uncorrected. A number with no mark means an inactive call. Names joined by + are all predicted targets of the reagent. Reagent sequences are not shown. Not stated in the record: the amount of reagent.

Purpose: 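Knock-downs that decrease or increase androgen receptor reporter signal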 (primary screen)
Cell system: Drosophila S2R+ cells
Knock-down reagent: long dsRNA against Drosophila genes
Duration: 72 h (48 h, then 24 h hormone)
Treatment: synthetic androgen R1881 at 10 nM for 24 h
Read-out: 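Firefly light from an androgen-responsive reporter and Renilla control light per well, raw and unnormalised, for each of two replicates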
Reading the numbers: firefly reporter light: higher = more light from androgen-responsive reporter; Renilla control light: higher = more constitutive control signal (cell number, transfection)
Hit rule: 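Across duplicate plates, a knock-down whose log firefly/Renilla ratio shifted a set fold down or up from the GFP/LacZ control mean was a hit; the downward cut appears as both 1.5 and 3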
Meaning of the calls: active = hit: reporter lowered or raised; inactive = no hit

Sec23 [DRSC12387]
- firefly reporter light, replicate 1: 55362
- firefly reporter light, replicate 2: 47292
- Renilla control light, replicate 1: 2.30e5
- Renilla control light, replicate 2: 2.67e5

twr [DRSC12491]
- firefly reporter light, replicate 1: 44992
- firefly reporter light, replicate 2: 50708
- Renilla control light, replicate 1: 1.13e6
- Renilla control light, replicate 2: 8.30e5

mRpL35 [DRSC14586]
- firefly reporter light, replicate 1: 2.76e5
- firefly reporter light, replicate 2: 2.37e5
- Renilla control light, replicate 1: 3.35e6
- Renilla control light, replicate 2: 3.03e6

pea [DRSC07120]
- firefly reporter light, replicate 1: 8.90e5
- firefly reporter light, replicate 2: 1.07e6
- Renilla control light, replicate 1: 2.05e6
- Renilla control light, replicate 2: 1.93e6

pea [DRSC29708]
- firefly reporter light, replicate 1: 2.88e5
- firefly reporter light, replicate 2: 3.74e5
- Renilla control light, replicate 1: 6.66e5
- Renilla control light, replicate 2: 8.56e5

CG3942 [DRSC15525]
- firefly reporter light, replicate 1: 1.36e5
- firefly reporter light, replicate 2: 1.60e5
- Renilla control light, replicate 1: 1.50e6
- Renilla control light, replicate 2: 2.04e6

CG3942 [DRSC26921]
- firefly reporter light, replicate 1: 3.68e5
- firefly reporter light, replicate 2: 3.38e5
- Renilla control light, replicate 1: 5.44e5
- Renilla control light, replicate 2: 5.60e5

Lcp65APsi [DRSC08795]
- firefly reporter light, replicate 1: 1.31e5
- firefly reporter light, replicate 2: 1.52e5
- Renilla control light, replicate 1: 1.34e5
- Renilla control light, replicate 2: 1.25e5

Lcp65APsi [DRSC10342]
- firefly reporter light, replicate 1: 2.39e5
- firefly reporter light, replicate 2: 2.46e5
- Renilla control light, replicate 1: 2.19e6
- Renilla control light, replicate 2: 2.62e6

CG14805 [DRSC18554]
- firefly reporter light, replicate 1: 1.51e5
- firefly reporter light, replicate 2: 1.50e5
- Renilla control light, replicate 1: 2.67e6
- Renilla control light, replicate 2: 3.16e6

Already shown: entries from further up.
pea [DRSC07120]
- firefly reporter light, replicate 1: 8.90e5
- firefly reporter light, replicate 2: 1.07e6
- Renilla control light, replicate 1: 2.05e6
- Renilla control light, replicate 2: 1.93e6

pea [DRSC29708]
- firefly reporter light, replicate 1: 2.88e5
- firefly reporter light, replicate 2: 3.74e5
- Renilla control light, replicate 1: 6.66e5
- Renilla control light, replicate 2: 8.56e5

CG3942 [DRSC15525]
- firefly reporter light, replicate 1: 1.36e5
- firefly reporter light, replicate 2: 1.60e5
- Renilla control light, replicate 1: 1.50e6
- Renilla control light, replicate 2: 2.04e6

CG3942 [DRSC26921]
- firefly reporter light, replicate 1: 3.68e5
- firefly reporter light, replicate 2: 3.38e5
- Renilla control light, replicate 1: 5.44e5
- Renilla control light, replicate 2: 5.60e5

The listing continues:
Jon99Ciii + Jon99Fi + Jon99Fii + 1 more [DRSC29104]
- firefly reporter light, replicate 1: 3.03e5
- firefly reporter light, replicate 2: 3.10e5
- Renilla control light, replicate 1: 8.39e5
- Renilla control light, replicate 2: 8.92e5

eIF3j [DRSC06107]
- firefly reporter light, replicate 1: 1.23e6
- firefly reporter light, replicate 2: 9.77e5
- Renilla control light, replicate 1: 1.72e6
- Renilla control light, replicate 2: 1.67e6

CG33108 [DRSC21613]
- firefly reporter light, replicate 1: 1.19e6
- firefly reporter light, replicate 2: 9.14e5
- Renilla control light, replicate 1: 2.39e6
- Renilla control light, replicate 2: 2.01e6

CG33108 [DRSC26424]
- firefly reporter light, replicate 1: 2.61e5
- firefly reporter light, replicate 2: 2.91e5
- Renilla control light, replicate 1: 7.48e5
- Renilla control light, replicate 2: 7.73e5

CG1701 [DRSC06641]
- firefly reporter light, replicate 1: 2.96e5
- firefly reporter light, replicate 2: 2.31e5
- Renilla control light, replicate 1: 1.42e6
- Renilla control light, replicate 2: 9.55e5

CG17167 [DRSC20902]
- firefly reporter light, replicate 1: 1.55e5
- firefly reporter light, replicate 2: 1.58e5
- Renilla control light, replicate 1: 5.40e5
- Renilla control light, replicate 2: 4.42e5

CG17167 [DRSC20903]
- firefly reporter light, replicate 1: 2.03e5
- firefly reporter light, replicate 2: 1.50e5
- Renilla control light, replicate 1: 3.15e5
- Renilla control light, replicate 2: 2.61e5

CG9346 [DRSC04542]
- firefly reporter light, replicate 1: 1.09e6
- firefly reporter light, replicate 2: 1.11e6
- Renilla control light, replicate 1: 2.37e6
- Renilla control light, replicate 2: 2.42e6

CG11825 [DRSC06090]
- firefly reporter light, replicate 1: 3.21e5
- firefly reporter light, replicate 2: 2.09e5
- Renilla control light, replicate 1: 1.85e6
- Renilla control light, replicate 2: 1.11e6

CG11825 [DRSC27780]
- firefly reporter light, replicate 1: 2.07e5
- firefly reporter light, replicate 2: 1.60e5
- Renilla control light, replicate 1: 6.68e5
- Renilla control light, replicate 2: 7.59e5

CG11893 [DRSC14429]
- firefly reporter light, replicate 1: 1.94e5
- firefly reporter light, replicate 2: 2.07e5
- Renilla control light, replicate 1: 2.37e6
- Renilla control light, replicate 2: 2.27e6

CG11893 [DRSC29725]
- firefly reporter light, replicate 1: 4.26e5
- firefly reporter light, replicate 2: 3.70e5
- Renilla control light, replicate 1: 9.06e5
- Renilla control light, replicate 2: 1.23e6

AlaRS-m [DRSC09660]
- firefly reporter light, replicate 1: 9.09e5
- firefly reporter light, replicate 2: 9.01e5
- Renilla control light, replicate 1: 1.16e6
- Renilla control light, replicate 2: 1.18e6

AlaRS-m [DRSC28250]
- firefly reporter light, replicate 1: 4.00e5
- firefly reporter light, replicate 2: 8.29e5
- Renilla control light, replicate 1: 1.56e6
- Renilla control light, replicate 2: 2.09e6

atlas [DRSC04183]
- firefly reporter light, replicate 1: 2.67e5
- firefly reporter light, replicate 2: 2.46e5
- Renilla control light, replicate 1: 1.41e6
- Renilla control light, replicate 2: 1.35e6

CG33710 [DRSC37842]
- firefly reporter light, replicate 1: 8.40e5
- firefly reporter light, replicate 2: 8.39e5
- Renilla control light, replicate 1: 1.64e6
- Renilla control light, replicate 2: 1.33e6

sip1 [DRSC03609]
- firefly reporter light, replicate 1: 53495
- firefly reporter light, replicate 2: 70206
- Renilla control light, replicate 1: 7.62e5
- Renilla control light, replicate 2: 8.37e5

sip1 [DRSC22648]
- firefly reporter light, replicate 1: 6.39e5
- firefly reporter light, replicate 2: 8.23e5
- Renilla control light, replicate 1: 1.87e6
- Renilla control light, replicate 2: 1.45e6

sip1 [DRSC27781]
- firefly reporter light, replicate 1: 2.82e5
- firefly reporter light, replicate 2: 2.52e5
- Renilla control light, replicate 1: 4.78e5
- Renilla control light, replicate 2: 5.54e5
